This test addresses hAC1 (Homo sapiens, UniProt Q08828). The test can be described thus: Cyclic AMP accumulation (HTRF) in HEK cells stably expressing AC1, stimulated with A23187. Conditions: AC8 IC50/AC1 IC50; without AC8 IC50, estimate based on IC50 ≥30 μM.

Amino acid sequences for entries named in this document (tags omitted).
UniProt Q08828, whole entry: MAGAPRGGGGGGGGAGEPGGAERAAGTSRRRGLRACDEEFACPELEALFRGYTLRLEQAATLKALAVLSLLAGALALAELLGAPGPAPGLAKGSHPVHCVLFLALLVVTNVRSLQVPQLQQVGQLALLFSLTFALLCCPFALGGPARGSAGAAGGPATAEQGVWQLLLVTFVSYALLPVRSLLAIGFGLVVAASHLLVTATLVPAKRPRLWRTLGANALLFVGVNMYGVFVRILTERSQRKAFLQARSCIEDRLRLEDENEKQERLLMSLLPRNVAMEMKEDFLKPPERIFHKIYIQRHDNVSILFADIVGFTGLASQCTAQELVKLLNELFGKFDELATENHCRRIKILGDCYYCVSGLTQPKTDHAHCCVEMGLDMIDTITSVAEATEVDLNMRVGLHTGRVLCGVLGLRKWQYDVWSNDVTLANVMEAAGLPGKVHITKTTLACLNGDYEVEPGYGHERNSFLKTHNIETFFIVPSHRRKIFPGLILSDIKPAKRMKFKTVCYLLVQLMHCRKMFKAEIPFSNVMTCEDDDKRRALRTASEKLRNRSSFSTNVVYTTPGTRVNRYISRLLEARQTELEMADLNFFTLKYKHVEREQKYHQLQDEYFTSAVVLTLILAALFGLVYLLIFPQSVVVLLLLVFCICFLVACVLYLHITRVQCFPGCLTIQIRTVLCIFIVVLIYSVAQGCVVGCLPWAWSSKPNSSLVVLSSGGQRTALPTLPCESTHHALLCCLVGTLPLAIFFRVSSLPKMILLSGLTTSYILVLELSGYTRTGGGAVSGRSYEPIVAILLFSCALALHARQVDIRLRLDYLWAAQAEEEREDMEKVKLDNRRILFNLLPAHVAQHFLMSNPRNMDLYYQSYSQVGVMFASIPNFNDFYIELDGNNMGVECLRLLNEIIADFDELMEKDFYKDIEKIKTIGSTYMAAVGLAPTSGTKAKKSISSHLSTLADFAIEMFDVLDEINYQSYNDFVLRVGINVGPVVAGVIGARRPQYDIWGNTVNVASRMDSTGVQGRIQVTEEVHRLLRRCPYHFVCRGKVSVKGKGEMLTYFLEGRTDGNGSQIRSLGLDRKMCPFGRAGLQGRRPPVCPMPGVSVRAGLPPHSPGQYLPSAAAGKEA

Data on one molecule can be found in patent US11667623B2, “Scaffold of adenylyl cyclase inhibitors for chronic pain and opioid dependence” (Purdue Research Foundation, priority 2017, dated 2023).

Not every entry of the source has a single result; some have several. This list holds those alone. An entry can have further records. The records of an entry do not match, cause unknown; they may come from other doses, times, organisms or constructs than stated.

Regarding `CCc1cc(=O)[nH]c(-n2nc(C)cc2NC(=O)c2ccccc2F)n1`, the “Selectivity AC1 vs AC8” value was “at least 60 fold and >60-fold”.
